The numbers were not newly measured in patent US20020151526A1, “Bile-acid prodrugs of L-dopa and their use in the sustained treatment of parkinsonism” (priority 2000, published 2002), which cites them from elsewhere.

The conditions of the data set: patients; administered alone; cited from earlier work.

As for `N[C@@H](Cc1ccc(O)c(O)c1)C(=O)O` [levodopa, L-dihydroxyphenylalanine], the half-life in plasma entry is “about 50 minutes”.
